We go through five molecules from doi:10.1101/2023.02.19.529116.

The experiment deals with T1, PH-EGFP-Smaug (Drosophila), Q23972.
T1 chain: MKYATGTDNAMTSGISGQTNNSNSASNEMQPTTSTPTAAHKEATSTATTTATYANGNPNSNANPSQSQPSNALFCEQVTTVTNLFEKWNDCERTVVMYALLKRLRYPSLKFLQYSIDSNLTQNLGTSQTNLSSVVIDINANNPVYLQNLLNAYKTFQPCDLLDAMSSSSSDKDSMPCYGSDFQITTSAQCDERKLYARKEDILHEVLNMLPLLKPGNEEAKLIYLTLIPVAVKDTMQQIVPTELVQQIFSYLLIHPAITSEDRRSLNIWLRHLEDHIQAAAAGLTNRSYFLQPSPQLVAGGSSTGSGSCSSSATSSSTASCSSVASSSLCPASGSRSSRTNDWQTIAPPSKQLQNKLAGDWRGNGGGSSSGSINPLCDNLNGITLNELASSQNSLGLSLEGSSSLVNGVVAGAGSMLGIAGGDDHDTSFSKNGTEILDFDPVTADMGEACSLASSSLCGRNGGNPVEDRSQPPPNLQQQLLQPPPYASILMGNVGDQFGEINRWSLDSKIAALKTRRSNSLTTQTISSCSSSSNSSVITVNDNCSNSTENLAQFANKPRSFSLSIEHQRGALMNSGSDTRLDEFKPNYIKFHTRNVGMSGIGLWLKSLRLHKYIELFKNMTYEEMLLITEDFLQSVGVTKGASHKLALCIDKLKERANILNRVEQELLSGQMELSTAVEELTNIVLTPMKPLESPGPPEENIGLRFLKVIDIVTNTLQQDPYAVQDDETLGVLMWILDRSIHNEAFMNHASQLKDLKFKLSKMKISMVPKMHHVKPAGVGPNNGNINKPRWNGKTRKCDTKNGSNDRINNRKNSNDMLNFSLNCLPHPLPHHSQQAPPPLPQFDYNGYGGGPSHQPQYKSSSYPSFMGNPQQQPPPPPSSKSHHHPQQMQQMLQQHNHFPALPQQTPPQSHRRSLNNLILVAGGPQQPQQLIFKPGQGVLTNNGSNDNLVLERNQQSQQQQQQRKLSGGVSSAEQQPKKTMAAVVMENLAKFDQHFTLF
Put plainly: ReLo. To be noted: remark: other sources report otherwise.

These are yes or no findings as the source states them, for the method shown. Tags and fused reporters may be left off the sequences shown.

B1: Tral, Q9VTZ0 1-652 (protein)
chain: MSGGLPELGSKISLISKADIRYEGRLYTVDPQECTIALSSVRSFGTEDRDTQFQIAPQSQIYDYILFRGSDIKDIRVVNNHTLPHHNDPAIMQAQLQNGPPQMPQHFPMPSGMSGPPQQQQVPSQQPPQMPSGGGSGGAGGAGAPGGGGPGYGNGNPFGNLGGPNLANMVGNAGGSLAPGSGAPGSGPFMHIGGNQQQPKPQQQKQPNMLAGASRSTTPISLIVSPTAELTQQQQLHQQQNAGQGGNGRDAGHKRQNHQQQQNQQHQQRGGPSHNNMQQQQQRGGGSGTDFYNQQRDRRDSGRQMDNNYSNNYNNNNNNQRNRGGGNGMQQQQRGGNGGSGGGGGNGGGNNPAWNMHRGNQNSNNMMNMRNRGMGSRGPMRPNQGYRPQSANNQNKPRNKIKFEGDFDFEQANNKFEELRSQLAKLKVAEDGAPKPATNATAATATATNEQVGEKVEGVHTLNGETDKKDDSGNETGAGEHEPEEDDVAVCYDKTKSFFDNISCEAAQDRSKNKKNDWRQERKLNTETFGVSSTRRGSYRGRNQYYNNNGNGGINSGYGGAPGYNRNNYRMGGGGGNFRNRSNNRNNGGGRGGNGMPNITNGNTAAALKAANNAAGHGSNATDSSAPNATTATTKSTSLLPEQTQQVAAVSQ
Turning to B1, the binding result was “no binding”.

B2: Aubergine, O76922 1-866 (protein)
chain: MNLPPNPVIARGRGRGRKPNNVEANRGFAPSLGQKSDPSHSEGNQASGGNGGGGDAQVGPSIEKSSLSAVQMHKSEGDPRGSVRGRRLITDLVYSRPPGMTSKKGVVGTHITVQANYFKVLKRPNWTIYQYRVDFTPDVEATRLRRSFLYEHKGILGGYIFDGTNMFCINQFKAVQDSPYVLELVTKSRAGENIEIKIKAVGSVQSTDAEQFQVLNLILRRAMEGLDLKLVSRYYYDPQAKINLENFRMQLWPGYQTSIRQHENDILLCSEICHKVMRTETLYNILSDAIRDSDDYQSTFKRAVMGMVILTDYNNKTYRIDDVDFQSTPLCKFKTNDGEISYVDYYKKRYNIIIRDLKQPLVMSRPTDKNIRGGNDQAIMIIPELARATGMTDAMRADFRTLRAMSEHTRLNPDRRIERLRMFNKRLKSCKQSVETLKSWNIELDSALVEIPARVLPPEKILFGNQKIFVCDARADWTNEFRTCSMFKNVHINRWYVITPSRNLRETQEFVQMCIRTASSMKMNICNPIYEEIPDDRNGTYSQAIDNAAANDPQIVMVVMRSPNEEKYSCIKKRTCVDRPVPSQVVTLKVIAPRQQKPTGLMSIATKVVIQMNAKLMGAPWQVVIPLHGLMTVGFDVCHSPKNKNKSYGAFVATMDQKESFRYFSTVNEHIKGQELSEQMSVNMACALRSYQEQHRSLPERILFFRDGVGDGQLYQVVNSEVNTLKDRLDEIYKSAGKQEGCRMTFIIVSKRINSRYFTGHRNPVPGTVVDDVITLPERYDFFLVSQAVRIGTVSPTSYNVISDNMGLNADKLQMLSYKMTHMYYNYSGTIRVPAVCHYAHKLAFLVAESINRAPSAGLQNQLYFL
On to B2, for which the binding entry is recorded as “no binding”.

B3: Me31B, P23128 1-459 (protein)
chain: MMTEKLNSGHTNLTSKGIINDLQIAGNTSDDMGWKSKLKLPPKDNRFKTTDVTDTRGNEFEEFCLKRELLMGIFEKGWERPSPIQEAAIPIALSGKDVLARAKNGTGKTGAYCIPVLEQIDPTKDYIQALVMVPTRELALQTSQICIELAKHLDIRVMVTTGGTILKDDILRIYQKVQLIIATPGRILDLMDKKVADMSHCRILVLDEADKLLSLDFQGMLDHVILKLPKDPQILLFSATFPLTVKNFMEKHLREPYEINLMEELTLKGVTQYYAFVQERQKVHCLNTLFSKLQINQSIIFCNSTQRVELLAKKITELGYCCYYIHAKMAQAHRNRVFHDFRQGLCRNLVCSDLFTRGIDVQAVNVVINFDFPRMAETYLHRIGRSGRFGHLGIAINLITYEDRFDLHRIEKELGTEIKPIPKVIDPALYVANVGASVGDTCNNSDLNNSANEEGNVSK
Turning to B3, the binding entry is recorded as “no binding”.

B4: Belle, Q9VHP0 1-798 (protein)
chain: MSNAINQNGTGLEQQVAGLDLNGGSADYSGPITSKTSTNSVTGGVYVPPHLRGGGGNNNAADAESQGQGQGQGQGFDSRSGNPRQETRDPQQSRGGGGEYRRGGGGGGRGFNRQSGDYGYGSGGGGRRGGGGRFEDNYNGGEFDSRRGGDWNRSGGGGGGGRGFGRGPSYRGGGGGSGSNLNEQTAEDGQAQQQQQPRNDRWQEPERPAGFDGSEGGQSAGGNRSYNNRGERGGGGYNSRWKEGGGSNVDYTKLGARDERLEVELFGVGNTGINFDKYEDIPVEATGQNVPPNITSFDDVQLTEIIRNNVALARYDKPTPVQKHAIPIIINGRDLMACAQTGSGKTAAFLVPILNQMYELGHVPPPQSTRQYSRRKQYPLGLVLAPTRELATQIFEEAKKFAYRSRMRPAVLYGGNNTSEQMRELDRGCHLIVATPGRLEDMITRGKVGLENIRFLVLDEADRMLDMGFEPQIRRIVEQLNMPPTGQRQTLMFSATFPKQIQELASDFLSNYIFLAVGRVGSTSENITQTILWVYEPDKRSYLLDLLSSIRDGPEYTKDSLTLIFVETKKGADSLEEFLYQCNHPVTSIHGDRTQKEREEALRCFRSGDCPILVATAVAARGLDIPHVKHVINFDLPSDVEEYVHRIGRTGRMGNLGVATSFFNEKNRNICSDLLELLIETKQEIPSFMEDMSSDRGHGGAKRAGRGGGGRYGGGFGSRDYRQSSGGGGGGRSGPPPRSGGSGSGGGGGSYRSNGNSYGGNSGGGGYYGGGAGGGSYGGSYGGGSASHSSNAPDWWAQ
Turning to B4, the binding result was “no binding”.

B5: Ago3, Q7PLK0 1-867 (protein)
chain: MSGRGNLLSLFNKNAGNMGKSISSKDHEIDSGLDFNNSESSGERLLSSHNIETDLITTLQHVNISVGRGRARLIDTLKTDDHTSNQFITSESKENITKKTKGPESEAIASENGLFFPDLIYGSKGSSVNIYCNYLKLTTDESKGVFNYEVRFFPPIDSVHLRIKYLNDHKDKLGGTKTFDGNTLYLPILLPNKMTVFISKAEDVELQIRILYKKKEEMRNCTQLYNILFDRVMKVLNYVKFDRKQFDPSRPKIIPLAKLEVWPGYVTAVDEYKGGLMLCCDVSHRILCQKTVLEMLVDLYQQNVEHYQESARKMLVGNIVLTRYNNRTYKINDICFDQNPTCQFEIKTGCTSYVEYYKQYHNINIKDVNQPLIYSIKKSRGIPAERENLQFCLIPELCYLTGLRDEVRSDNKLMREIATFTRVSPNQRQMALNKFYENVSNTPAAQEILNSWGLSLTNNSNKISGRQMDIEQIYFSKISVSAGRSAEFSKHAVTNEMLKVVHLSKWIIIHLRNYRQAATSLLDNMKQACESLGMNISNPTMISLDHDRIDAYIQALRRNITMNTQMVVCICHNRRDDRYAAIKKICCSEIPIPSQVINAKTLQNDLKIRSVVQKIVLQMNCKLGGSLWTVKIPFKNVMICGIDSYHDPSNRGNSVAAFVASINSSYSQWYSKAVVQTKREEIVNGLSASFEIALKMYRKRNGKLPTNIIIYRDGIGDGQLYTCLNYEIPQFEMVCGNRIKISYIVVQKRINTRIFSGSGIHLENPLPGTVVDQHITKSNMYDFFLVSQLVRQGTVTPTHYVVLRDDCNYGPDIIQKLSYKLCFLYYNWAGTVRIPACCMYAHKLAYLIGQSIQRDVAEALSEKLFYL
For B5, the binding result is listed as “no binding”.
